Some of these results come from one statement about several compounds together. For at least one compound, name, drawing or mass did not settle the structure.
Tested on: mannanase
Assay: Effect of metal ions and chemicals on mannanase activity
Format: biochemical, Cellulosimicrobium sp. HY-13
Conditions: metal ions 1 mM; pH 6.0, 50° C., 10 minutes

In the case of `[Cl][Cu][Cl]` [CuCl2], the “inhibition of the enzyme activity” value was “at least 50%”.

— US9307782B2, “Mannanase produced from Cellulosimicrobium sp. strain HY-13” (Korea Research Institute of Bioscience and Biotechnology, priority 2011, dated 2016)
